Results taken from US20230348376A1 (TEIJIN PHARMA LIMITED, priority 2020, published 2023).

Tested on: rat oligodendrocyte progenitor cells
Test: Promotive activity of rat oligodendrocyte progenitor cell differentiation-2 (immunostaining of MBP)
Type: cell-based
Conditions: vitamin D derivative 2 μM, T3 30 nM
Procedure: The promotive activity of oligodendrocyte progenitor cell (OPC) differentiation of the vitamin D derivatives was evaluated by immunostaining of MBP.
Subsequently, oligodendrocyte progenitor cell separation medium was added to the flask, and the mixture was similarly shaken for about 22 hours (37° C., 200 rpm), and the supernatant was collected to prepare oligodendrocyte progenitor cells.

## C[C@H](CN1CCN(C)C[C@@H]1C)[C@H]1CC[C@H]2/C(=C/C=C3C[C@@H](O)C[C@H](O)C3)CCC[C@]12C [Compound G011, (1R,3R)-5-(2-((1R,3aS,7aR,E)-1-((S)-1-((S)-2,4-dimethylpiperazin-1-yl)propan-2-yl)-7a-methyloctahydro-4H-inden-4-ylidene)ethylidene)cyclohexane-1,3-diol]
Test 5
  Significant difference (t-test vs DMSO group): ** (<0.01)

## C[C@H](CN1CCN(C)C[C@H]1C)[C@H]1CC[C@H]2/C(=C/C=C3C[C@@H](O)C[C@H](O)C3)CCC[C@]12C [Compound G012, (1R,3R)-5-(2-((1R,3aS,7aR,E)-1-((S)-1-((R)-2,4-dimethylpiperazin-1-yl)propan-2-yl)-7a-methyloctahydro-4H-inden-4-ylidene)ethylidene)cyclohexane-1,3-diol]
Test 5
  Significant difference (t-test vs DMSO group): * (<0.05)

## C[C@H](CN1CCC[C@@H]1C(C)(C)O)[C@H]1CC[C@H]2/C(=C/C=C3C[C@@H](O)C[C@H](O)C3)CCC[C@]12C [Compound G013, (1R,3R)-5-(2-((1R,3aS,7aR,E)-1-((S)-1-((R)-2-(2-hydroxypropan-2-yl)pyrrolidin-1-yl)propan-2-yl)-7a-methyloctahydro-4H-inden-4-ylidene)ethylidene)cyclohexane-1,3-diol]
Test 6
  Significant difference (t-test vs DMSO group): **** (<0.0001)

## C[C@H](CN1CCC[C@H]1C(C)(C)O)[C@H]1CC[C@H]2/C(=C/C=C3C[C@@H](O)C[C@H](O)C3)CCC[C@]12C [Compound G014, (1R,3R)-5-(2-((1R,3aS,7aR,E)-1-((S)-1-((S)-2-(2-hydroxypropan-2-yl)pyrrolidin-1-yl)propan-2-yl)-7a-methyloctahydro-4H-inden-4-ylidene)ethylidene)cyclohexane-1,3-diol]
Test 6
  Significant difference (t-test vs DMSO group): **** (<0.0001)

## COC(C)(C)[C@H]1CCCN1C[C@@H](C)[C@H]1CC[C@H]2/C(=C/C=C3C[C@@H](O)C[C@H](O)C3)CCC[C@]12C [Compound G015, (1R,3R)-5-(2-((1R,3aS,7aR,E)-1-((S)-1-((R)-2-(2-methoxypropan-2-yl)pyrrolidin-1-yl)propan-2-yl)-7a-methyloctahydro-4H-inden-4-ylidene)ethylidene)cyclohexane-1,3-diol]
Test 6
  Significant difference (t-test vs DMSO group): **** (<0.0001)

## COC(C)(C)[C@@H]1CCCN1C[C@@H](C)[C@H]1CC[C@H]2/C(=C/C=C3C[C@@H](O)C[C@H](O)C3)CCC[C@]12C [Compound G016, (1R,3R)-5-(2-((1R,3aS,7aR,E)-1-((S)-1-((S)-2-(2-methoxypropan-2-yl)pyrrolidin-1-yl)propan-2-yl)-7a-methyloctahydro-4H-inden-4-ylidene)ethylidene)cyclohexane-1,3-diol]
Test 7
  Significant difference (t-test vs DMSO group): *** (<0.001)

## C[C@H](CCN1CCCC[C@@H]1C)[C@H]1CC[C@H]2/C(=C/C=C3C[C@@H](O)C[C@H](O)C3)CCC[C@]12C [Compound G017, (1R,3R)-5-(2-((1R,3aS,7aR,E)-7a-methyl-1-((R)-4-((S)-2-methylpiperidin-1-yl)butan-2-yl)octahydro-4H-inden-4-ylidene)ethylidene)cyclohexane-1,3-diol]
Test 6
  Significant difference (t-test vs DMSO group): **** (<0.0001)

## C[C@H](CCN1CCCC[C@H]1C)[C@H]1CC[C@H]2/C(=C/C=C3C[C@@H](O)C[C@H](O)C3)CCC[C@]12C [Compound G018, (1R,3R)-5-(2-((1R,3aS,7aR,E)-7a-methyl-1-((R)-4-((R)-2-methylpiperidin-1-yl)butan-2-yl)octahydro-4H-inden-4-ylidene)ethylidene)cyclohexane-1,3-diol]
Test 6
  Significant difference (t-test vs DMSO group): **** (<0.0001)

## C=C1[C@H](O)CC(=C/C=C2\CCC[C@]3(C)[C@@H]([C@H](C)CN4CCCC[C@@H]4C)CC[C@@H]23)C[C@H]1O [Compound H001, (1R,3R)-5-(2-((1R,3aS,7aR,E)-7a-methyl-1-((S)-1-((S)-2-methylpiperidin-1-yl)propan-2-yl)octahydro-4H-inden-4-ylidene)ethylidene)-2-methylenecyclohexane-1,3-diol]
Test 7
  Significant difference (t-test vs DMSO group): **** (<0.0001)

## C=C1[C@H](O)CC(=C/C=C2\CCC[C@]3(C)[C@@H]([C@H](C)CN4CCCC[C@H]4C)CC[C@@H]23)C[C@H]1O [Compound H002, (1R,3R)-5-(2-((1R,3aS,7aR,E)-7a-methyl-1-((S)-1-((R)-2-methylpiperidin-1-yl)propan-2-yl)octahydro-4H-inden-4-ylidene)ethylidene)-2-methylenecyclohexane-1,3-diol]
Test 9
  Significant difference (t-test vs DMSO group): **** (<0.0001)

## C=C1[C@H](O)CC(=C/C=C2\CCC[C@]3(C)[C@@H]([C@H](C)CN4CCCCC4(C)C)CC[C@@H]23)C[C@H]1O [Compound H003, (1R,3R)-5-(2-((1R,3aS,7aR,E)-1-((S)-1-(2,2-dimethylpiperidin-1-yl)propan-2-yl)-7a-methyloctahydro-4H-inden-4-ylidene)ethylidene)-2-methylenecyclohexane-1,3-diol]
Test 9
  Significant difference (t-test vs DMSO group): *** (<0.001)

## C=C1[C@H](O)CC(=C/C=C2\CCC[C@]3(C)[C@@H]([C@H](C)CN4CCN(C)C[C@@H]4C)CC[C@@H]23)C[C@H]1O [Compound H011, (1R,3R)-5-(2-((1R,3aS,7aR,E)-1-((S)-1-((S)-2,4-dimethylpiperazin-1-yl)propan-2-yl)-7a-methyloctahydro-4H-inden-4-ylidene)ethylidene)-2-methylenecyclohexane-1,3-diol]
Test 5
  Significant difference (t-test vs DMSO group): *** (<0.001)

## C=C1[C@H](O)CC(=C/C=C2\CCC[C@]3(C)[C@@H]([C@H](C)CN4CCN(C)C[C@H]4C)CC[C@@H]23)C[C@H]1O [Compound H012, (1R,3R)-5-(2-((1R,3aS,7aR,E)-1-((S)-1-((R)-2,4-dimethylpiperazin-1-yl)propan-2-yl)-7a-methyloctahydro-4H-inden-4-ylidene)ethylidene)-2-methylenecyclohexane-1,3-diol]
Test 7
  Significant difference (t-test vs DMSO group): ** (<0.01)

## C=C1[C@H](O)CC(=C/C=C2\CCC[C@]3(C)[C@@H]([C@H](C)CN4CCC[C@@H]4C(C)(C)O)CC[C@@H]23)C[C@H]1O [Compound H013, (1R,3R)-5-(2-((1R,3aS,7aR,E)-1-((S)-1-((R)-2-(2-hydroxypropan-2-yl)pyrrolidin-1-yl)propan-2-yl)-7a-methyloctahydro-4H-inden-4-ylidene)ethylidene)-2-methylenecyclohexane-1,3-diol]
Test 8
  Significant difference (t-test vs DMSO group): **** (<0.0001)

## C=C1[C@H](O)CC(=C/C=C2\CCC[C@]3(C)[C@@H]([C@H](C)CN4CCC[C@H]4C(C)(C)O)CC[C@@H]23)C[C@H]1O [Compound H014, (1R,3R)-5-(2-((1R,3aS,7aR,E)-1-((S)-1-((S)-2-(2-hydroxypropan-2-yl)pyrrolidin-1-yl)propan-2-yl)-7a-methyloctahydro-4H-inden-4-ylidene)ethylidene)-2-methylenecyclohexane-1,3-diol]
Test 8
  Significant difference (t-test vs DMSO group): **** (<0.0001)

## C=C1[C@H](O)CC(=C/C=C2\CCC[C@]3(C)[C@@H]([C@H](C)CN4CCC[C@@H]4C(C)(C)OC)CC[C@@H]23)C[C@H]1O [Compound H015, (1R,3R)-5-(2-((1R,3aS,7aR,E)-1-((S)-1-((R)-2-(2-methoxypropan-2-yl)pyrrolidin-1-yl)propan-2-yl)-7a-methyloctahydro-4H-inden-4-ylidene)ethylidene)-2-methylenecyclohexane-1,3-diol]
Test 8
  Significant difference (t-test vs DMSO group): **** (<0.0001)

## C=C1[C@H](O)CC(=C/C=C2\CCC[C@]3(C)[C@@H]([C@H](C)CN4CCC[C@H]4C(C)(C)OC)CC[C@@H]23)C[C@H]1O [Compound H016, (1R,3R)-5-(2-((1R,3aS,7aR,E)-1-((S)-1-((S)-2-(2-methoxypropan-2-yl)pyrrolidin-1-yl)propan-2-yl)-7a-methyloctahydro-4H-inden-4-ylidene)ethylidene)-2-methylenecyclohexane-1,3-diol]
Test 8
  Significant difference (t-test vs DMSO group): ** (<0.01)

## C=C1/C(=C\C=C2/CCC[C@]3(C)[C@@H]([C@H](C)CN4CCCC[C@@H]4C)CC[C@@H]23)C[C@@H](O)C[C@H]1O [Compound I001, (1R,3R,Z)-5-(2-((1R,3aS,7aR,E)-7a-methyl-1-((S)-1-((S)-2-methylpiperidin-1-yl)propan-2-yl)octahydro-4H-inden-4-ylidene)ethylidene)-4-methylenecyclohexane-1,3-diol]
Test 9
  Significant difference (t-test vs DMSO group): *** (<0.001)

## C=C1/C(=C\C=C2/CCC[C@]3(C)[C@@H]([C@H](C)CN4CCCC[C@H]4C)CC[C@@H]23)C[C@@H](O)C[C@H]1O [Compound I002, (1R,3R,Z)-5-(2-((1R,3aS,7aR,E)-7a-methyl-1-((S)-1-((R)-2-methylpiperidin-1-yl)propan-2-yl)octahydro-4H-inden-4-ylidene)ethylidene)-4-methylenecyclohexane-1,3-diol]
Test 9
  Significant difference (t-test vs DMSO group): **** (<0.0001)

## C=C1/C(=C\C=C2/CCC[C@]3(C)[C@@H]([C@H](C)CN4CCCCC4(C)C)CC[C@@H]23)C[C@@H](O)C[C@H]1O [Compound I003, (1R,3R,Z)-5-(2-((1R,3aS,7aR,E)-1-((S)-1-(2,2-dimethylpiperidin-1-yl)propan-2-yl)-7a-methyloctahydro-4H-inden-4-ylidene)ethylidene)-4-methylenecyclohexane-1,3-diol]
Test 9
  Significant difference (t-test vs DMSO group): **** (<0.0001)

## C=C1/C(=C\C=C2/CCC[C@]3(C)[C@@H]([C@H](C)CN4CCOC[C@@H]4C)CC[C@@H]23)C[C@@H](O)C[C@H]1O [Compound I004, (1R,3R,Z)-5-(2-((1R,3aS,7aR,E)-7a-methyl-1-((S)-1-((S)-3-methylmorpholino)propan-2-yl)octahydro-4H-inden-4-ylidene)ethylidene)-4-methylenecyclohexane-1,3-diol]
Test 4
  Significant difference (t-test vs DMSO group): **** (<0.0001)
